Among the data in PMC4070083 are binding values, retold here.

Assay [1] addresses SlTCP6 (tomato (Solanum lycopersicum)) (UniProt G3BGU6). In words: two-hybrid; matrix of all combinations; GAL4 BD baits (pDEST32) in yeast PJ69-4α mated with GAL4 AD preys (pDEST22) in PJ69-4a; growth on SD -Leu -Trp -Ade (-LTA) and -Leu -Trp -His (-LTH) with 5, 10 or 15 mM 3-AT; plates at 20°C, scored after 5 d; in triplicate.
In assay [2] the target is SlTCP21 (tomato (Solanum lycopersicum)) (UniProt G3BGW1). The description is as above.

These are yes or no findings as the source states them, for the method shown. Binding calls can cover weak binding; strength is not graded here.

Take SlTCP12 (from UniProt A0A3Q7JKS5): the binding entry in assay [1] and in assay [2] was “binds” each time.

Consider SlTCP13 (from UniProt G3BGV3), for which the binding entry in assay [1] and in assay [2] was “binds” in each case.
